At least one compound was matched to its structure with a doubt left.
Legend:
TNBC PDX model MAXF 857 = assay: Niraparib+bevacizumab and niraparib+cabozantinib combinations in TNBC PDX model MAXF 857; assay type: in vivo, mouse; conditions: TNBC PDX model MAXF 857, 5 weeks
ovarian PDX model OVC134 = assay: Niraparib and cabozantinib combination in ovarian PDX model OVC134; assay type: in vivo, mouse; conditions: ovarian PDX model OVC134, 7 weeks

## COc1cc2nccc(Oc3ccc(NC(=O)C4(C(=O)Nc5ccc(F)cc5)CC4)cc3)c2cc1OC [cabozantinib]
TNBC PDX model MAXF 857
  Sensitivity of the model to monotherapy (anti-tumor activity): very sensitive
Ovarian PDX model OVC134
  Sensitivity of the model to monotherapy (anti-tumor activity): very sensitive
